# Test results: the supplement of paper PMC8728848
# This is one part of the list.
# B1: CBP21 (Serratia marcescens), O83009 (protein)
# chain: MNKTSRTLLSLGLLSAAMFGVSQQANAHGYVESPASRAYQCKLQLNTQCGSVQAEPQSVEGLKGFPQAGPADGHIASADKSTFFELDQQTPTRWNKLNLKTGPNSFTWKLTARHSTTSWRYFITKPNWDASQPLTRASFDLTPFCQFNDGGAIPAAQVTHQCNIPADRSGSHVILAVWDIADTANAFYQAIDVNLSK
# Experiments:
# Assay in all cases: glycan array binding signal (z-score within array); higher = stronger binding
# Details in all cases: glycan notation: IUPAC condensed, linker removed; mutation: Y54A
# Neu5Ac(a2-3)Gal = molecular target: Neu5Ac(a2-3)Gal
# Summary of the method: (§1)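 Glycan array binding is given as a within-array Z-score, which can be read as non-binding when negative. The arrays, 3228 of them, came from the Consortium for Functional Glycomics database and were retained only where the protein sequence was available. Z-scores were averaged across arrays of the same protein sequence at different concentrations or buffers and across linkers.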
# [1] = molecular target: Neu5Ac(a2-3)Gal(b1-3)GalNAc
# Summary of the method: as §1
# [2] = molecular target: Neu5Ac(a2-3)Gal(b1-3)GalNAc(b1-3)Gal(a1-4)Gal(b1-4)Glc
# Summary of the method: as §1
# [3] = molecular target: Neu5Ac(a2-3)Gal(b1-3)GalNAc(b1-4)Gal(b1-4)Glc
# Summary of the method: as §1
# [4] = molecular target: Neu5Ac(a2-3)Gal(b1-3)GalNAc(b1-4)[Neu5Ac(a2-3)]Gal(b1-4)Glc
# Summary of the method: as §1
# [5] = molecular target: Neu5Ac(a2-3)Gal(b1-3)GalNAc(b1-4)[Neu5Ac(a2-8)Neu5Ac(a2-3)]Gal(b1-4)Glc
# Summary of the method: as §1
# [6] = molecular target: Neu5Ac(a2-3)Gal(b1-3)GalNAc6S
# Summary of the method: as §1
# [7] = molecular target: Neu5Ac(a2-3)Gal(b1-3)GlcNAc
# Summary of the method: as §1
# [8] = molecular target: Neu5Ac(a2-3)Gal(b1-3)GlcNAc(b1-2)Man
# Summary of the method: as §1
# [9] = molecular target: Neu5Ac(a2-3)Gal(b1-3)GlcNAc(b1-2)Man(a1-3)[GlcNAc(b1-4)][Neu5Ac(a2-3)Gal(b1-3)GlcNAc(b1-2)Man(a1-6)]Man(b1-4)GlcNAc(b1-4)GlcNAc
# Summary of the method: as §1
# [10] = molecular target: Neu5Ac(a2-3)Gal(b1-3)GlcNAc(b1-2)Man(a1-3)[Neu5Ac(a2-3)Gal(b1-3)GlcNAc(b1-2)Man(a1-6)]Man(b1-4)GlcNAc(b1-4)GlcNAc
# Summary of the method: as §1
# [11] = molecular target: Neu5Ac(a2-3)Gal(b1-3)GlcNAc(b1-2)[Neu5Ac(a2-3)Gal(b1-3)GlcNAc(b1-4)]Man(a1-6)[Neu5Ac(a2-3)Gal(b1-3)GlcNAc(b1-2)Man(a1-3)]Man(b1-4)GlcNAc(b1-4)GlcNAc
# Summary of the method: as §1
# [12] = molecular target: Neu5Ac(a2-3)Gal(b1-3)GlcNAc(b1-3)Gal(b1-3)GlcNAc
# Summary of the method: as §1
# [13] = molecular target: Neu5Ac(a2-3)Gal(b1-3)GlcNAc(b1-3)Gal(b1-4)GlcNAc
# Summary of the method: as §1
# [14] = molecular target: Neu5Ac(a2-3)Gal(b1-3)GlcNAc(b1-3)GalNAc
# Summary of the method: as §1
# [15] = molecular target: Neu5Ac(a2-3)Gal(b1-3)GlcNAc(b1-6)GalNAc
# Summary of the method: as §1
# [16] = molecular target: Neu5Ac(a2-3)Gal(b1-3)GlcNAc6S
# Summary of the method: as §1
# [17] = molecular target: Neu5Ac(a2-3)Gal(b1-3)[Fuc(a1-4)]GlcNAc
# Summary of the method: as §1
# [18] = molecular target: Neu5Ac(a2-3)Gal(b1-3)[Fuc(a1-4)]GlcNAc(b1-3)Gal(b1-3)[Fuc(a1-4)]GlcNAc
# Summary of the method: as §1
# [19] = molecular target: Neu5Ac(a2-3)Gal(b1-3)[Fuc(a1-4)]GlcNAc(b1-3)Gal(b1-4)[Fuc(a1-3)]GlcNAc
# Summary of the method: as §1
# [20] = molecular target: Neu5Ac(a2-3)Gal(b1-3)[GlcNAc(b1-6)]GalNAc
# Summary of the method: as §1
# [21] = molecular target: Neu5Ac(a2-3)Gal(b1-3)[Neu5Ac(a2-6)]GalNAc
# Summary of the method: as §1
# [22] = molecular target: Neu5Ac(a2-3)Gal(b1-3)[Neu5Ac(a2-6)]GlcNAc(b1-3)[Fuc(a1-3)[Gal(b1-4)]GlcNAc(b1-6)]Gal(b1-4)Glc
# Summary of the method: as §1
# [23] = molecular target: Neu5Ac(a2-3)Gal(b1-3)]Neu5Ac(a2-3)Gal(b1-4)]GlcNAc
# Summary of the method: as §1
# Neu5Ac(a2-3)Gal(b1-4)Glc = molecular target: Neu5Ac(a2-3)Gal(b1-4)Glc
# Summary of the method: as §1
# [24] = molecular target: Neu5Ac(a2-3)Gal(b1-4)GlcNAc
# Summary of the method: as §1
# [25] = molecular target: Neu5Ac(a2-3)Gal(b1-4)GlcNAc(b1-2)Man
# Summary of the method: as §1
# [26] = molecular target: Neu5Ac(a2-3)Gal(b1-4)GlcNAc(b1-2)Man(a1-3)[GlcNAc(b1-4)][Neu5Ac(a2-3)Gal(b1-4)GlcNAc(b1-2)Man(a1-6)]Man(b1-4)GlcNAc(b1-4)GlcNAc
# Summary of the method: as §1
# [27] = molecular target: Neu5Ac(a2-3)Gal(b1-4)GlcNAc(b1-2)Man(a1-3)[Neu5Ac(a2-3)Gal(b1-4)GlcNAc(b1-2)Man(a1-6)]Man(b1-4)GlcNAc(b1-4)GlcNAc
# Summary of the method: as §1
# [28] = molecular target: Neu5Ac(a2-3)Gal(b1-4)GlcNAc(b1-2)Man(a1-3)[Neu5Ac(a2-3)Gal(b1-4)GlcNAc(b1-2)Man(a1-6)]Man(b1-4)GlcNAc(b1-4)[Fuc(a1-6)]GlcNAc
# Summary of the method: as §1
# [29] = molecular target: Neu5Ac(a2-3)Gal(b1-4)GlcNAc(b1-2)Man(a1-3)[Neu5Ac(a2-6)Gal(b1-4)GlcNAc(b1-2)Man(a1-6)]Man(b1-4)GlcNAc(b1-4)GlcNAc
# Summary of the method: as §1
# [30] = molecular target: Neu5Ac(a2-3)Gal(b1-4)GlcNAc(b1-2)[Neu5Ac(a2-3)Gal(b1-4)GlcNAc(b1-4)]Man(a1-3)[GlcNAc(b1-4)][Neu5Ac(a2-3)Gal(b1-4)GlcNAc(b1-2)[Neu5Ac(a2-3)Gal(b1-4)GlcNAc(b1-6)]Man(a1-6)]Man(b1-4)GlcNAc(b1-4)GlcNAc
# Summary of the method: as §1
# [31] = molecular target: Neu5Ac(a2-3)Gal(b1-4)GlcNAc(b1-2)[Neu5Ac(a2-3)Gal(b1-4)GlcNAc(b1-4)]Man(a1-3)[GlcNAc(b1-4)][Neu5Ac(a2-3)Gal(b1-4)GlcNAc(b1-4)Man(a1-6)]Man(b1-4)GlcNAc(b1-4)GlcNAc
# Summary of the method: as §1
# [32] = molecular target: Neu5Ac(a2-3)Gal(b1-4)GlcNAc(b1-2)[Neu5Ac(a2-3)Gal(b1-4)GlcNAc(b1-6)]Man(a1-6)[Neu5Ac(a2-3)Gal(b1-4)GlcNAc(b1-2)Man(a1-3)][GlcNAc(b1-4)]Man(b1-4)GlcNAc(b1-4)GlcNAc
# Summary of the method: as §1
# [33] = molecular target: Neu5Ac(a2-3)Gal(b1-4)GlcNAc(b1-3)Gal
# Summary of the method: as §1
# [34] = molecular target: Neu5Ac(a2-3)Gal(b1-4)GlcNAc(b1-3)Gal(b1-3)GlcNAc
# Summary of the method: as §1
# [35] = molecular target: Neu5Ac(a2-3)Gal(b1-4)GlcNAc(b1-3)Gal(b1-4)GlcNAc
# Summary of the method: as §1
# [36] = molecular target: Neu5Ac(a2-3)Gal(b1-4)GlcNAc(b1-3)Gal(b1-4)GlcNAc(b1-2)Man(a1-3)[Neu5Ac(a2-3)Gal(b1-4)GlcNAc(b1-3)Gal(b1-4)GlcNAc(b1-2)Man(a1-6)]Man(b1-4)GlcNAc(b1-4)GlcNAc
# Summary of the method: as §1
# [37] = molecular target: Neu5Ac(a2-3)Gal(b1-4)GlcNAc(b1-3)Gal(b1-4)GlcNAc(b1-3)Gal(b1-4)GlcNAc
# Summary of the method: as §1
# [38] = molecular target: Neu5Ac(a2-3)Gal(b1-4)GlcNAc(b1-3)Gal(b1-4)GlcNAc(b1-3)Gal(b1-4)GlcNAc(b1-2)Man(a1-3)[Neu5Ac(a2-3)Gal(b1-4)GlcNAc(b1-3)Gal(b1-4)GlcNAc(b1-3)Gal(b1-4)GlcNAc(b1-2)Man(a1-6)]GalNAc
# Summary of the method: as §1
# [39] = molecular target: Neu5Ac(a2-3)Gal(b1-4)GlcNAc(b1-3)Gal(b1-4)GlcNAc(b1-3)GalNAc
# Summary of the method: as §1
# [40] = molecular target: Neu5Ac(a2-3)Gal(b1-4)GlcNAc(b1-3)Gal(b1-4)GlcNAc(b1-3)[Neu5Ac(a2-3)Gal(b1-4)GlcNAc(b1-3)Gal(b1-4)GlcNAc(b1-6)]GalNAc
# Summary of the method: as §1
# [41] = molecular target: Neu5Ac(a2-3)Gal(b1-4)GlcNAc(b1-3)Gal(b1-4)GlcNAc(b1-6)[Gal(b1-3)]GalNAc
# Summary of the method: as §1
# [42] = molecular target: Neu5Ac(a2-3)Gal(b1-4)GlcNAc(b1-3)Gal(b1-4)[Fuc(a1-3)]GlcNAc
# Summary of the method: as §1
# [43] = molecular target: Neu5Ac(a2-3)Gal(b1-4)GlcNAc(b1-3)GalNAc
# Summary of the method: as §1
binder,measurement,setting,value
B1,glycan array binding signal (z-score),Neu5Ac(a2-3)Gal,-0.008
same,glycan array binding signal (z-score),[1],-0.502
same,glycan array binding signal (z-score),[2],-0.583
same,glycan array binding signal (z-score),[3],-0.205
same,glycan array binding signal (z-score),[4],-0.465
same,glycan array binding signal (z-score),[5],-0.853
same,glycan array binding signal (z-score),[6],5.86
same,glycan array binding signal (z-score),[7],-0.515
same,glycan array binding signal (z-score),[8],-0.435
same,glycan array binding signal (z-score),[9],-0.043
same,glycan array binding signal (z-score),[10],-0.307
same,glycan array binding signal (z-score),[11],5.4
same,glycan array binding signal (z-score),[12],-0.488
same,glycan array binding signal (z-score),[13],1.79
same,glycan array binding signal (z-score),[14],-0.088
same,glycan array binding signal (z-score),[15],0.054
same,glycan array binding signal (z-score),[16],-0.121
same,glycan array binding signal (z-score),[17],-0.078
same,glycan array binding signal (z-score),[18],-0.29
same,glycan array binding signal (z-score),[19],0.202
same,glycan array binding signal (z-score),[20],-0.865
same,glycan array binding signal (z-score),[21],3.97
same,glycan array binding signal (z-score),[22],-0.764
same,glycan array binding signal (z-score),[23],0.743
same,glycan array binding signal (z-score),Neu5Ac(a2-3)Gal(b1-4)Glc,0.821
same,glycan array binding signal (z-score),[24],-0.373
same,glycan array binding signal (z-score),[25],-0.035
same,glycan array binding signal (z-score),[26],-0.561
same,glycan array binding signal (z-score),[27],-0.458
same,glycan array binding signal (z-score),[28],0.14
same,glycan array binding signal (z-score),[29],0.681
same,glycan array binding signal (z-score),[30],0.538
same,glycan array binding signal (z-score),[31],-0.017
same,glycan array binding signal (z-score),[32],-0.228
same,glycan array binding signal (z-score),[33],-0.407
same,glycan array binding signal (z-score),[34],1.61
same,glycan array binding signal (z-score),[35],-0.609
same,glycan array binding signal (z-score),[36],-0.666
same,glycan array binding signal (z-score),[37],-0.695
same,glycan array binding signal (z-score),[38],-0.428
same,glycan array binding signal (z-score),[39],-0.163
same,glycan array binding signal (z-score),[40],1.5
same,glycan array binding signal (z-score),[41],-0.494
same,glycan array binding signal (z-score),[42],0.07
same,glycan array binding signal (z-score),[43],3.83

# Quoted at random: 4 entries already listed, in no set order.
binder,measurement,setting,value
B1,glycan array binding signal (z-score),[30],0.538
same,glycan array binding signal (z-score),[25],-0.035
same,glycan array binding signal (z-score),[4],-0.465
same,glycan array binding signal (z-score),[1],-0.502
